No constants are given. Whether binding was seen depends on the method and setting. For some of these results: Binding seen in cells or lysates may run through a third protein. Some entries that bind do so weakly or less than the wild type. Where a sequence is shown, tags or fusion partners need not be part of it.
How the values were obtained:
GFP-SET8 = target: T1, GFP-SET8 (UniProt Q9NQR1); assay: co-IP
T1 sequence: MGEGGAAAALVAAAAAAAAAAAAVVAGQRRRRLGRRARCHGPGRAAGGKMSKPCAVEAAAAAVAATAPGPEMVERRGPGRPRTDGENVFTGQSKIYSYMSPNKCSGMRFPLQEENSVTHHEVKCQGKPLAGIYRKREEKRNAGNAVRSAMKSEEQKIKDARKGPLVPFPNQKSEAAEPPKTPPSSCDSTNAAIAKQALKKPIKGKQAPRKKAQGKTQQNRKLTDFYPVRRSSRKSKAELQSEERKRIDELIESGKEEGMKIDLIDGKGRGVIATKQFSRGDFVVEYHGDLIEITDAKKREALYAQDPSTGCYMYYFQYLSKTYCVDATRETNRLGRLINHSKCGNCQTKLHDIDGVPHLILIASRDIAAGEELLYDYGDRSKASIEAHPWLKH

Chains of the proteins cited; added tags and fusions are not shown.
UniProt Q8IYW5: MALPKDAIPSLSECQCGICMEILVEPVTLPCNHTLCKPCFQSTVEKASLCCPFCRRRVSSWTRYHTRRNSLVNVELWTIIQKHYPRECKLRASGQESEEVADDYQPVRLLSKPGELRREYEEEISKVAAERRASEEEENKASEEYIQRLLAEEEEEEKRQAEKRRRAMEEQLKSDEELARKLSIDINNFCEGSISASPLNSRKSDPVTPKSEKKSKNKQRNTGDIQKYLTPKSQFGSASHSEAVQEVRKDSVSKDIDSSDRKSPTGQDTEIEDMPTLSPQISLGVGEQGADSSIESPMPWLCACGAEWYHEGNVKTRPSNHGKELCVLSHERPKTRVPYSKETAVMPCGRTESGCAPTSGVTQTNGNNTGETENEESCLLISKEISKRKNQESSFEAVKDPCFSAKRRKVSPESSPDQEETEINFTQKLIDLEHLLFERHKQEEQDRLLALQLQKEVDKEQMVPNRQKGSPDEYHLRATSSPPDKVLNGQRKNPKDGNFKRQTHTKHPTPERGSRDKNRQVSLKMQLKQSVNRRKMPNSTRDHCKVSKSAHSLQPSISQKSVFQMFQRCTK

3×Flag-SET8 = target: T2, 3×Flag-SET8 (UniProt Q9NQR1); assay: co-IP
T2 sequence: T1 sequence

GFP-RNF168 = GFP-RNF168 (UniProt Q8IYW5); assay: co-IP
LacR-mCherry-RNF168 = LacR-mCherry-RNF168 (UniProt Q8IYW5); assay: LacO/LacR chromatin tethering with confocal microscopy

For “3×Flag-RNF168 (from UniProt Q8IYW5 1-571)”, the binding (GFP-SET8) was “binds”.

In the case of GFP-RNF168 (from UniProt Q8IYW5 1-571), the binding (3×Flag-SET8) is reported as “binds”.

B1: 3×Flag-SET8 (protein, UniProt Q9NQR1 1-393)
chain: T1 sequence
B1 was tested, and the binding (GFP-RNF168) was “binds”.

B2: GFP-SET8 (protein, UniProt Q9NQR1 1-393)
chain: T1 sequence
For B2, the binding (LacR-mCherry-RNF168) was “binds”.

— article doi:10.1101/766147
